Usually AC50 stands for the midpoint of the concentration-response curve, whichever way the signal moves.

The nature of this test: qHTS Assay for Lipid Storage Modulators in Drosophila S3 Cells.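 As to cell number change: cells counted by Cell Tracker Red CMTPX staining in the red channel.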 The settings on record: BODIPY lipid droplet fluorescence, 18-24 h; for cell number change: measured here: cell count max response, cells fed with added oleic acid. Put shortly:
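Drosophila S3 cells got compounds at several concentrations plus oleic acid (400 uM solution). Laser-scanning cytometry with 488 nm excitation read lipid droplets at 500-530 nm and cells at 575-640 nm. Percent activity was relative to 20 uM Triacsin C.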

[1] abbreviates: measured here: lipid fluorescence (Fed channel) AC50, cells fed with added oleic acid.
Where [2] appears, read: measured here: cell number channel AC50, cells fed with added oleic acid.

The list shows a part of the results. These are further read-outs of the screen, such as a control signal, another cell line or another target. No call is given for them. Most of these compounds were active or inconclusive in the main read-out, so they are no random draw. Words in brackets tell the shape of the fitted curve; partial curves, single points and poor fits give uncertain potencies.

For the compound `Cc1ccc(S(=O)(=O)N(C)C)cc1NC(=O)C1CCCN(C(=O)c2ccc(Cl)cc2)C1` (stereo not drawn), the cell number change turned out to be 10.8%. Moreover, the AC50 under setting [1] is 0.92 µM [rising, full curve].

As to `Cc1cc(C)c2c(=O)n(CC(=O)NCCCN3CCN(c4ccccc4F)CC3)sc2n1`, the cell number change was -108%. Besides, the AC50 under setting [2] is 23.1 µM [falling, partial curve]. The half-maximal activity concentration (AC50) under setting [1] is 25.9 µM [falling, partial curve].

For the compound `COc1ccc(COCC(O)CN2CCC(CN3C(=O)c4cccc5cccc(c45)C3=O)CC2)cc1OC` (stereo not drawn), the cell number change was -16.5%. For the same compound, under setting [2], the AC50 is 1.84 µM [falling, partial curve]. In addition, under setting [1], the AC50 was 3.66 µM [falling, partial curve, poor fit].

On to `CC(C)c1ccc(C(=O)CC2(O)C(=O)N(CN3CCOCC3)c3ccccc32)cc1` (stereo not drawn), for which the cell number change stood at 143%.

Turning to `S=C(Nc1ccc(N2CCOCC2)cc1)Nc1ccc2snnc2c1`, the AC50 is 0.00517 µM [rising, full curve, poor fit] under setting [2] and 0.92 µM [rising, full curve, poor fit] under setting [1].

Consider `Cc1cccc(OCC(=O)O/N=C(\N)Cc2ccc([N+](=O)[O-])cc2)c1`, for which the cell number change stood at 16.1%. Also, the AC50 under setting [1] is 25.9 µM [rising, partial curve, poor fit].

As for `Cc1cc(C(=O)CN2C(=O)C(=O)N(Cc3ccccc3)C2=O)c(C)n1-c1ccccc1F`, under setting [1], the AC50 is 0.13 µM [rising, single point].

Consider `COc1ccc(CNS(=O)(=O)NCc2ccc(OC)c(OC)c2)cc1`, for which the cell number change came to 0.271%.

As for `COC(OC)C1Nc2ccccc2C(=O)N1c1ccc(F)cc1` (stereo not drawn), the cell number change is -8.87%. For the same compound, under setting [1], the AC50 is 0.13 µM [rising, full curve, poor fit].

Take `CCc1cccc(NC(=O)CCS(=O)(=O)c2ccc(Br)cc2)c1`: the cell number change was -15.6%. Besides, the AC50 under setting [1] was 29.1 µM [falling, single point].

As for `CCc1ccc(OCC(=O)Nc2ccc(S(=O)(=O)N3CCOCC3)cc2)cc1`, the cell number change is 87%. Under setting [2], the AC50 is 14.6 µM [rising, partial curve].

For `CC1CC(NS(=O)(=O)c2cc3c4c(c2)CCN4C(=O)CC3)CC(C)(C)C1` (stereo not drawn), the cell number change was -8.21%. In addition, under setting [1], the AC50 was 2.31 µM [falling, single point].

As to `CCn1c(COc2ccc(Cl)cc2)nnc1SCc1nc2ccccc2[nH]1`, the AC50 under setting [1] is 0.651 µM [rising, partial curve, poor fit].

For `CCc1ccc(C(CNc2nc(C(F)(F)F)nc3ccccc23)N(C)C)cc1` (stereo not drawn), the cell number change came out at 2.52%. Further, the AC50 under setting [1] is 29.1 µM [rising, single point].

Turning to `CCCSc1nnc(NC(=O)c2sc3nc(-c4cccs4)ccc3c2N)s1`, the cell number change was found to be 101%. In addition, the AC50 under setting [1] was 7.31 µM [rising, single point].

For `CCOC(=O)C1CCN(C(=O)c2cccnc2)CC1`, the cell number change was 0.718%. Moreover, under setting [1], the AC50 is 0.231 µM [falling, full curve, poor fit].

`Cc1nn(C)c(Cl)c1C(=O)NCC(=O)O`: the cell number change is -30.3%. Also, the AC50 under setting [1] is 29.1 µM [falling, single point].

For `COc1ccc(NC(=O)CCCc2ccccc2)cc1OC`, the cell number change is -4.4%.

Turning to `COc1cccc(C2NC(=O)c3sc(=S)n(-c4ccccc4)c3N2)c1` (stereo not drawn), the cell number change was determined as 21.4%. Under setting [1], the AC50 was 3.26 µM [falling, partial curve].

For `Cc1ccc2c3c([nH]c2c1)C(=O)CC(C)(C)S3`, the cell number change was determined as 10.6%.

With `CCC(C)c1ccc(S(=O)(=O)N2CCN(C(C)CC(=O)O)CC2)cc1` (stereo not drawn), the cell number change is -48.7%.

Consider `COc1ccc(CCNC(=O)Cn2c(=O)n(Cc3ccco3)c(=O)c3ccc(Cl)cc32)cc1OC`, for which the cell number change was -52.6%. Under setting [2], the AC50 was 16.4 µM [falling, partial curve]. The AC50 under setting [1] was 0.146 µM [rising, full curve, poor fit].

As for `O=C(/C=C/c1ccccc1Cl)NCCCn1ccnc1`, the cell number change is -7.94%.

As to `O=C(NC1CCCCC1)C1CCN(C(=O)NCc2ccccc2)CC1`, the cell number change is 7.84%. Moreover, the AC50 under setting [1] is 0.00411 µM [falling, full curve, poor fit].

Turning to `O=C(O)c1cc([N+](=O)[O-])c(Nc2cccc3ccccc23)c([N+](=O)[O-])c1`, the cell number change was -4.85%.

`NC(=O)NCC12CC3CC(CC(C3)C1)C2`: the cell number change was determined as 11.2%. For the same compound, the AC50 under setting [1] is 3.66 µM [rising, single point].

For the compound `O=C(NCCN1CCCCCC1)C1CCN(S(=O)(=O)N2CCOCC2)CC1`, the AC50 runs as follows: under setting [2], 6.51 µM [falling, single point]; under setting [1], 6.51 µM [falling, single point].

In the case of `CN(C)S(=O)(=O)c1cccc(COc2cccnc2[N+](=O)[O-])c1`, the cell number change was -4.5%. Further, under setting [1], the AC50 is 1.84 µM [falling, full curve].

As for `O=S(=O)(NCCSc1ccccc1)c1ccc(F)cc1`, the cell number change is -47%. The AC50 under setting [2] is 20.6 µM [falling, single point].

Regarding `O=[N+]([O-])c1c(C(Cl)Cl)nn(-c2ccc(Cl)cc2)c1N1CCCCC1`, the cell number change is -30.2%. Also, the AC50 under setting [2] is 1.46 µM [falling, full curve, poor fit]. Besides, the concentration at half-maximal activity (AC50) under setting [1] is 4.61 µM [falling, single point].

`COCCCn1c(SCC(=O)Nc2ccc(C(C)=O)cc2)nc2ccccc2c1=O`: the cell number change was -34.1%. For the same compound, the AC50 under setting [2] was 13 µM [falling, partial curve]. In addition, the AC50 under setting [1] was 2.59 µM [falling, partial curve].

Regarding `COc1ccc(C2C(C(C)=O)=C(C)N=c3s/c(=C/c4ccc5c(c4)OCO5)c(=O)n32)cc1` (stereo not drawn), the cell number change was found to be 74.1%. For the same compound, the AC50 under setting [2] was 0.651 µM [rising, full curve]. Further, under setting [1], the AC50 is 1.03 µM [rising, full curve].

In the case of `COc1ccccc1-c1nnc(SCC(=O)N2CCCC2)o1`, the cell number change was 9.58%. The AC50 under setting [1] was 0.116 µM [rising, single point].

Consider `O=C(N/N=C\c1cc(Br)ccc1O)c1ccc(S(=O)(=O)N2CCCCC2)cc1`, for which the cell number change was -36%. For the same compound, under setting [2], the half-maximal activity concentration (AC50) is 32.6 µM [falling, single point].

As to `CC(Sc1nnc(-c2ccco2)n1C)C(=O)N1C(C)CCCC1C` (stereo not drawn), the cell number change was -33.7%. Also, under setting [2], the AC50 was 35.5 µM [falling, single point]. Further, the AC50 under setting [1] was 14.1 µM [falling, single point].

Consider `CCOC(=O)c1ccc(NC(=O)N2CCc3ccccc32)cc1`, for which the cell number change was -69.5%. Besides, the half-maximal activity concentration (AC50) under setting [2] is 25.9 µM [falling, single point]. In addition, under setting [1], the AC50 is 20.6 µM [falling, single point].

Take `CCOc1ccccc1OC(=O)c1ccco1`: the cell number change is -10.9%. Further, under setting [2], the AC50 is 0.82 µM [falling, full curve]. Besides, the AC50 under setting [1] is 0.82 µM [falling, full curve, poor fit].

As to `Cc1cccc2cc(C#N)c(NCCNC(=S)NCCCN3CCOCC3)nc12`, the AC50 under setting [1] is 0.517 µM [falling, single point].

As for `CCC(C(=O)OCC(=O)Nc1ccc(OC)cc1OC)c1ccccc1` (stereo not drawn), the cell number change worked out at 34.4%. Moreover, the AC50 under setting [2] is 29.1 µM [rising, single point].

As for `CCOC(=O)COC(=O)c1ccc(O)cc1`, the cell number change was -5.68%. For the same compound, the AC50 under setting [1] was 0.651 µM [falling, single point].

On to `NS(=O)(=O)c1ccc(Nc2nc(-c3cccc([N+](=O)[O-])c3)cs2)cc1`, for which the cell number change is -25.2%. The AC50 under setting [2] was 0.651 µM [rising, partial curve, poor fit]. Moreover, the AC50 under setting [1] was 1.46 µM [rising, partial curve].

Turning to `CCN(CC)S(=O)(=O)c1cccc(C(=O)OC2CC(C)OC2=O)c1` (stereo not drawn), the cell number change was determined as 25.6%. Moreover, the AC50 under setting [1] is 29.1 µM [rising, single point].

On to `Cc1ccc(S(=O)(=O)CCc2ccncc2)cc1`, for which the cell number change is 5.31%.

Take `Cc1ccc(N(C(C)C(=O)N2CCN(Cc3ccccc3)CC2)S(C)(=O)=O)cc1` (stereo not drawn): the cell number change was -9.09%. The AC50 under setting [1] is 2.91 µM [falling, single point].

For `O=C(NCCCNc1ccc(C(F)(F)F)cc1[N+](=O)[O-])c1ccc(Cl)cc1`, the cell number change was -28.7%. For the same compound, under setting [1], the AC50 was 0.731 µM [falling, single point].

With `CCN(CC)c1ncnc2sc(C(=O)N3CCN(c4ccccc4)CC3)c(C)c12`, the AC50 was 6.51 µM [rising, single point] under setting [2] and 0.291 µM [rising, partial curve, poor fit] under setting [1].

As for `COc1ccc(S(=O)(=O)N2CCCCC2)cc1NC(=O)c1cc(C)on1`, the cell number change was 52.8%. Moreover, the AC50 under setting [1] is 0.326 µM [rising, single point].

With `CCc1ccc(CN(C)C(=O)c2ccc3c(c2)OCCO3)cc1`, the cell number change is -19.7%. The AC50 under setting [1] is 4.11 µM [falling, single point].

With `O=C(Nc1ccc2c(c1)oc1ccccc12)c1ccc(Br)o1`, the cell number change was -12.6%. Also, under setting [2], the AC50 is 4.11 µM [rising, single point].

In the case of `CN(CC(=O)Nc1ccc(Cl)c(Cl)c1)C(=O)CC1OC(=O)c2ccccc21` (stereo not drawn), the cell number change worked out at 39%. Besides, the AC50 under setting [2] is 9.2 µM [rising, partial curve]. In addition, under setting [1], the AC50 was 10.3 µM [rising, partial curve].

Regarding `Cn1c(=O)cc(OCCCC(=O)NC2CCCC2)c2ccccc21`, the AC50 under setting [1] was 0.651 µM [falling, single point].

Turning to `CCc1ccc(CN2CCCC(C(=O)Nc3ccccc3-c3ccc(OC)cc3)C2)o1` (stereo not drawn), under setting [1], the AC50 was 0.517 µM [falling, single point].

`COc1ccc(-c2cc3c(=O)n(CC(=O)Nc4cccc(Cl)c4)ncn3n2)cc1`: the cell number change stood at 15.9%. The AC50 under setting [1] is 25.9 µM [rising, single point].

For `O=C(O)CC(c1ccccc1)n1cccc1` (stereo not drawn), the cell number change was 7.14%.

With `CCC(=O)N1CCc2cc(Br)cc(S(=O)(=O)NCCCN(C)Cc3ccccc3)c21`, the cell number change is -0.87%.

In the case of `O=C(CN1C(=O)NC(Cc2c[nH]c3ccccc23)C1=O)NCCc1ccc(F)cc1` (stereo not drawn), the cell number change is -18.9%. Under setting [1], the AC50 was 14.6 µM [falling, partial curve].

For the compound `COc1ccc(CNC(=O)C(c2cccs2)N(C(=O)c2csnn2)C2CC2)cc1` (stereo not drawn), the cell number change stood at 45.5%. For the same compound, the AC50 under setting [2] was 6.51 µM [rising, partial curve, poor fit].

On to `N#CC1(NC(=O)COC(=O)c2cc([N+](=O)[O-])ccc2N2CCCC2)CCCCC1`, for which the cell number change is -13.3%.

Take `CCCN(CC(=O)Nc1ccccc1C)C(=O)C1CC(=O)N(c2ccc(C)cc2)C1` (stereo not drawn): the cell number change was -25%. Besides, under setting [2], the concentration at half-maximal activity (AC50) was 1.84 µM [falling, partial curve].

The values above are taken from PubChem BioAssay AID2685 (National Center for Advancing Translational Sciences (NCATS), 2010).
